In US9247747B2, “Fungicidal substituted 1-{2-[2-halo-4-(4-halogen-phenoxy)-phenyl]-2-alkoxy-2-alkynyl/alkenyl-ethyl}-1H-[1,2,4]triazole compounds” (BASF SE, priority 2011, dated 2016):
Some of these results come from one statement about several compounds together.

Legend:
Assay type in all cases: in vivo
[1] = tested on: Alternaria solani; experiment: G2. Preventative fungicidal control of early blight on tomatoes (Alternaria solani) (Alteso P1), green house; conditions: tomato plants sprayed with 300 ppm active substance, inoculated next day, assessed after 5 days; untreated plants 90% infected
[2] = tested on: Puccinia recondite; experiment: G3. Preventative control of brown rust on wheat caused by Puccinia recondite (Puccrt P1), green house; conditions: wheat seedlings sprayed with 300 ppm active substance, inoculated next day, assessed after 24 h humid chamber plus 6 days greenhouse; untreated plants 70% infected
[3] = tested on: Septoria tritici; experiment: G1. Preventative control of leaf blotch on wheat caused by Septoria tritici (Septtr P1), green house; conditions: wheat seedlings sprayed with 300 ppm active substance, inoculated next day, assessed after 4 weeks; untreated plants 90% infected
Protocol: The spray solutions were prepared in several steps:
The stock solution were prepared: a mixture of acetone and/or dimethylsulfoxide and the wetting agent/emulsifier Wettol, which is based on ethoxylated alkylphenoles, in a relation (volume) solvent-emulsifier of 99 to 1 was added to 25 mg of the compound to give a total of 5 ml. Water was then added to total volume of 100 ml.
This stock solution was diluted with the described solvent-emulsifier-water mixture to the given concentration.
G1. Preventative Control of Leaf Blotch on Wheat Caused by Septoria tritici (Septtr P1)
Leaves of pot-grown wheat seedling were sprayed to run-off with an aqueous suspension of the active compound or their mixture, prepared as described. The plants were allowed to air-dry. The next day the plants were inoculated with an aqueous spore suspension of Septoria tritici. Then the trial plants were immediately transferred to a humid chamber at 18-22° C. and a relative humidity close to 100%. After 4 days the plants were transferred to a chamber with 18-22° C. and a relative humidity close to 70%. After 4 weeks the extent of fungal attack on the leaves was visually assessed as % diseased leaf area.

C#CCOC(C=C)(Cn1cncn1)c1ccc(Oc2ccc(Cl)cc2)cc1Cl (centres unmarked) [I-9]
infection (extent of fungal attack on the leaves visually assessed as % diseased leaf area) [1]: ≤ 7%
infection (extent of fungal attack on the leaves visually assessed as % diseased leaf area) [2]: ≤ 10%

C#CCOC(C#CC)(Cn1cncn1)c1ccc(Oc2ccc(Cl)cc2)cc1Cl (centres unmarked) [I-13]
infection (extent of fungal attack on the leaves visually assessed as % diseased leaf area) [3]: ≤ 1%
infection (extent of fungal attack on the leaves visually assessed as % diseased leaf area) [1]: ≤ 7%
infection (extent of fungal attack on the leaves visually assessed as % diseased leaf area) [2]: ≤ 10%

C#CC(Cn1cncn1)(OCC)c1ccc(Oc2ccc(Cl)cc2)cc1Cl (centres unmarked) [I-2]
infection (extent of fungal attack on the leaves visually assessed as % diseased leaf area) [1]: ≤ 7%
infection (extent of fungal attack on the leaves visually assessed as % diseased leaf area) [2]: ≤ 10%

C#CCOC(CC#C)(Cn1cncn1)c1ccc(Oc2ccc(Cl)cc2)cc1Cl (centres unmarked) [I-15]
infection (extent of fungal attack on the leaves visually assessed as % diseased leaf area) [3]: ≤ 1%
infection (extent of fungal attack on the leaves visually assessed as % diseased leaf area) [1]: ≤ 7%
infection (extent of fungal attack on the leaves visually assessed as % diseased leaf area) [2]: ≤ 10%

C=CCOC(C=C)(Cn1cncn1)c1ccc(Oc2ccc(Cl)cc2)cc1Cl (centres unmarked) [I-8]
infection (extent of fungal attack on the leaves visually assessed as % diseased leaf area) [3]: ≤ 1%
infection (extent of fungal attack on the leaves visually assessed as % diseased leaf area) [1]: ≤ 7%
infection (extent of fungal attack on the leaves visually assessed as % diseased leaf area) [2]: ≤ 10%

CC#CC(Cn1cncn1)(OC)c1ccc(Oc2ccc(Cl)cc2)cc1Cl (centres unmarked) [I-10]
infection (extent of fungal attack on the leaves visually assessed as % diseased leaf area) [1]: ≤ 7%
infection (extent of fungal attack on the leaves visually assessed as % diseased leaf area) [2]: ≤ 10%

C#CCOC(C#C)(Cn1cncn1)c1ccc(Oc2ccc(Cl)cc2)cc1Cl (centres unmarked) [I-3]
infection (extent of fungal attack on the leaves visually assessed as % diseased leaf area) [1]: ≤ 7%
infection (extent of fungal attack on the leaves visually assessed as % diseased leaf area) [2]: ≤ 10%

CC#CC(Cn1cncn1)(OCC)c1ccc(Oc2ccc(Cl)cc2)cc1Cl (centres unmarked) [I-11]
infection (extent of fungal attack on the leaves visually assessed as % diseased leaf area) [3]: ≤ 1%
infection (extent of fungal attack on the leaves visually assessed as % diseased leaf area) [1]: ≤ 7%
infection (extent of fungal attack on the leaves visually assessed as % diseased leaf area) [2]: ≤ 10%

C#CC(Cn1cncn1)(OCCC)c1ccc(Oc2ccc(Cl)cc2)cc1Cl (centres unmarked) [I-5]
infection (extent of fungal attack on the leaves visually assessed as % diseased leaf area) [1]: ≤ 7%
infection (extent of fungal attack on the leaves visually assessed as % diseased leaf area) [2]: ≤ 10%

C=CCOC(C#CC)(Cn1cncn1)c1ccc(Oc2ccc(Cl)cc2)cc1Cl (centres unmarked) [I-12]
infection (extent of fungal attack on the leaves visually assessed as % diseased leaf area) [3]: ≤ 1%
infection (extent of fungal attack on the leaves visually assessed as % diseased leaf area) [1]: ≤ 7%
infection (extent of fungal attack on the leaves visually assessed as % diseased leaf area) [2]: ≤ 10%

C=CC(Cn1cncn1)(OC)c1ccc(Oc2ccc(Cl)cc2)cc1Cl (centres unmarked) [I-7, 1-[2-[2-chloro-4-(4-chlorophenoxy)phenyl]-2-methoxy-but-3-enyl]-1,2,4-triazole]
infection (extent of fungal attack on the leaves visually assessed as % diseased leaf area) [3]: ≤ 1%
infection (extent of fungal attack on the leaves visually assessed as % diseased leaf area) [1]: ≤ 7%
infection (extent of fungal attack on the leaves visually assessed as % diseased leaf area) [2]: ≤ 10%

C#CC(Cn1cncn1)(OC)c1ccc(Oc2ccc(Cl)cc2)cc1Cl (centres unmarked) [I-1]
infection (extent of fungal attack on the leaves visually assessed as % diseased leaf area) [3]: ≤ 1%
infection (extent of fungal attack on the leaves visually assessed as % diseased leaf area) [1]: ≤ 7%
infection (extent of fungal attack on the leaves visually assessed as % diseased leaf area) [2]: ≤ 10%

C#CC(Cn1cncn1)(OCc1ccccc1)c1ccc(Oc2ccc(Cl)cc2)cc1Cl (centres unmarked) [I-4]
infection (extent of fungal attack on the leaves visually assessed as % diseased leaf area) [2]: ≤ 10%
